Data as given in PMC8771839.

The chains behind the UniProt entries cited, without tags or fusion partners.
UniProt Q13200: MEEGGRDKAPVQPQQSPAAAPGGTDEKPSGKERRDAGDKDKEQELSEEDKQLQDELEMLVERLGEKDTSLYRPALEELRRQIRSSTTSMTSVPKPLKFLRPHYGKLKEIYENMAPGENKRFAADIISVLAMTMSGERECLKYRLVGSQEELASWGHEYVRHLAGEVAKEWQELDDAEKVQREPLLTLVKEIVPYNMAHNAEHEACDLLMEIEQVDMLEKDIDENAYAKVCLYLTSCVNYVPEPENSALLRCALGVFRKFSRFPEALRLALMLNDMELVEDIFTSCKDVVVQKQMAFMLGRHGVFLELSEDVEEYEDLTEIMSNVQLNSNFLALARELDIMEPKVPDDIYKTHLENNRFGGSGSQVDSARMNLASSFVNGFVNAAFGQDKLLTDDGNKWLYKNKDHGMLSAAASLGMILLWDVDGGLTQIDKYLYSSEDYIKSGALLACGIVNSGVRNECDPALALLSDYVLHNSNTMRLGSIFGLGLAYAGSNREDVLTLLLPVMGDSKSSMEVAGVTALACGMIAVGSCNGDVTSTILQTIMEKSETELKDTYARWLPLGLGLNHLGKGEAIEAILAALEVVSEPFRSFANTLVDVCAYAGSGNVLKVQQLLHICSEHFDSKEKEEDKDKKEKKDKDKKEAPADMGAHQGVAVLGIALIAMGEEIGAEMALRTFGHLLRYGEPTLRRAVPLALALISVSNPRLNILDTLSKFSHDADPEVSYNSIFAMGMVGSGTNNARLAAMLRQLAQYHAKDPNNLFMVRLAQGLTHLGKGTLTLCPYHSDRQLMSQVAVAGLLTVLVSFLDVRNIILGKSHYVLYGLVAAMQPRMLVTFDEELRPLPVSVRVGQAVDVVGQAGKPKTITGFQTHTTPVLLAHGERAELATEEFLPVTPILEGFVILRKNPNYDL

Molecular target: T1, DIRAS family GTPase 2 (DIRAS2), FLAG-tagged (human) (UniProt Q96HU8)
T1 sequence: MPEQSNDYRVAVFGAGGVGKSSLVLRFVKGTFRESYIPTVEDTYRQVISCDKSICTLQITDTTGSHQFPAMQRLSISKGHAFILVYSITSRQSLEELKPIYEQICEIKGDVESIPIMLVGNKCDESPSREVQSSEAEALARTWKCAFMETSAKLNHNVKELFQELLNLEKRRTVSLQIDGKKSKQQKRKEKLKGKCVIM
Experiment: affinity purification with mass spectrometry; FLAG-tagged protein enrichment from oe-DIRAS2 RKO cells and their controls; Coomassie blue-stained gel, then LC-MS

binding: binds
Substance: 26S proteasome non-ATPase regulatory subunit 2 (PSMD2) (from UniProt Q13200 1-908)

These are yes or no findings as the source states them, for the method shown. In cells and extracts the contact can be indirect. These calls come from enrichment with a bait or labelling near it, and not all partners need be listed. Sequences can lack the tags named with a protein.
